Results taken from article PMC6040738.
No constants are given. Whether binding was seen depends on the method and setting. For some of these results: Tags and fused reporters may be left off the sequences shown.

Sequences of proteins named here, by UniProt entry; tags and fusion partners are left off. A change or cut given only in a name is not applied to a line headed by its entry.
UniProt O75475: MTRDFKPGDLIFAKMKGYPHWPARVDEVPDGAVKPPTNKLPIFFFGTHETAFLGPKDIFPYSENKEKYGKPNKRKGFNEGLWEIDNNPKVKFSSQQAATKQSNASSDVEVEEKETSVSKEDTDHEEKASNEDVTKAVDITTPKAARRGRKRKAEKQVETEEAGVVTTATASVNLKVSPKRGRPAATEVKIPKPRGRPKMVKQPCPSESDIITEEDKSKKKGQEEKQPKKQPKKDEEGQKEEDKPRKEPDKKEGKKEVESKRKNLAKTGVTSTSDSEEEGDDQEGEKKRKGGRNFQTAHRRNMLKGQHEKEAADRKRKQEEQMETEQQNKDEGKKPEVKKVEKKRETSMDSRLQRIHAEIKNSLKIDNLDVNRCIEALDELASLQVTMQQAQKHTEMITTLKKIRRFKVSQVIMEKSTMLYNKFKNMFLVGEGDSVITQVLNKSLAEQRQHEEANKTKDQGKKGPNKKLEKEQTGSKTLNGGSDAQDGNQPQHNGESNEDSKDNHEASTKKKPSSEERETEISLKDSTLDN
UniProt P67809: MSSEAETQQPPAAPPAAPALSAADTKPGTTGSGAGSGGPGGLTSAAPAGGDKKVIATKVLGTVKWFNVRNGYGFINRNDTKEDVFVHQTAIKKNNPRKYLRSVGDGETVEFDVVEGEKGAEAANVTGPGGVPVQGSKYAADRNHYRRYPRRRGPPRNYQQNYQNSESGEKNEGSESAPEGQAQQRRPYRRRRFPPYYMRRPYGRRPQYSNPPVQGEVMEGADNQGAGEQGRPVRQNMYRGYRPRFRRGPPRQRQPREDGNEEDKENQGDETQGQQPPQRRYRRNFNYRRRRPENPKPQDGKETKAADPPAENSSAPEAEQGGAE

Tests used:
Assay in all cases: AlphaScreen or HTRF; dilution series of GST-YB-1 or GST-YB-1 CSD against a fixed partner (80 nM His-IN, 2 nM JPO2-MBP, 100 nM His-TRN, His-LEDGF/p75, His-LEDGF/p52, His-Menin); the legend does not name the method, the text cites S2 Fig with the AlphaScreen assay; both purified
recombinant His-Menin = biological target: T1, recombinant His-Menin (UniProt O00255)
T1 sequence: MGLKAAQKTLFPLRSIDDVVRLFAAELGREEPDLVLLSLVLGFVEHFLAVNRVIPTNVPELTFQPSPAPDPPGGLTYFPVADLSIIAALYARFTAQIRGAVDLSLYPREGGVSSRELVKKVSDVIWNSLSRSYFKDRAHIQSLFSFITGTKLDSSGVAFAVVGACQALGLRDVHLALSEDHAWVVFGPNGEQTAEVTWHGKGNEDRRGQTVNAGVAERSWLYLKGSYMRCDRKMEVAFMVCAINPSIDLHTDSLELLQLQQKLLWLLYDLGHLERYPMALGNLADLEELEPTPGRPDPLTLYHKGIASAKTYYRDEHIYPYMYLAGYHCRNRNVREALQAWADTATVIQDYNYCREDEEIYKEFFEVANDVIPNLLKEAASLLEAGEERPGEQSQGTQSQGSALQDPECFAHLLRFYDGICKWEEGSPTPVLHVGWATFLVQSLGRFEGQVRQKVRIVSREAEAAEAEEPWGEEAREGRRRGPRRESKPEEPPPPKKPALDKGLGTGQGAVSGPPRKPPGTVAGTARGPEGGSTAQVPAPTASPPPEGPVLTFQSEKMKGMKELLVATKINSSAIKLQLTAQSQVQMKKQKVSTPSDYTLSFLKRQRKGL

[1] = biological target: T2, 6xHistidine-tagged Transportin-SR2 (His-TRN) (UniProt Q9Y5L0)
T2 sequence: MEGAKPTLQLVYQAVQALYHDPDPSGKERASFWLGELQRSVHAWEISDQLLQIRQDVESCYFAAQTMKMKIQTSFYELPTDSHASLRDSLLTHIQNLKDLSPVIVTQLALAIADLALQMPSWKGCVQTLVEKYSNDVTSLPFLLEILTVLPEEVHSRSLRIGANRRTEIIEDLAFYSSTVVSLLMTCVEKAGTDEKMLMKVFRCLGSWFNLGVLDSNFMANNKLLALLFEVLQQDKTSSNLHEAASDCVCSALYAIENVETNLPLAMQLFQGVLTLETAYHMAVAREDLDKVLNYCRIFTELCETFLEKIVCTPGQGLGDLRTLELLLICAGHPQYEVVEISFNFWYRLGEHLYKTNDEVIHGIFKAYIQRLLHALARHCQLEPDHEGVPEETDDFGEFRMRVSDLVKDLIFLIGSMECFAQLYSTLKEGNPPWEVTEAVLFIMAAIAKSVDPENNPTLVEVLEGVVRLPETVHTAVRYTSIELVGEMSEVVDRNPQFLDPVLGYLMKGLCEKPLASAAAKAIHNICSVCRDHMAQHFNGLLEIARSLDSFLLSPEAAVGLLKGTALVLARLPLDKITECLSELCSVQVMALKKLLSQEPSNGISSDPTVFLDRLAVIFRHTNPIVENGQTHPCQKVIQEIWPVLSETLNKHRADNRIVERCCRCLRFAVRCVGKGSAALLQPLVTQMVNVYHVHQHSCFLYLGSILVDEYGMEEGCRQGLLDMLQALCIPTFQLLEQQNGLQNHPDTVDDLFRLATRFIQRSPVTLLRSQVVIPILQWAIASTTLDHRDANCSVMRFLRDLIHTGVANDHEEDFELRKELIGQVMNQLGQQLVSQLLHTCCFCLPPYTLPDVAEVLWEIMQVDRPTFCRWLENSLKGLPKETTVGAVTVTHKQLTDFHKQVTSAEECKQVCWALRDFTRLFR

[2] = biological target: recombinant His-LEDGF/p75 (UniProt O75475)
[3] = biological target: T3, Cell division cycle-associated 7-like protein (CDCA7L/JPO2), JPO2-MBP (UniProt Q96GN5)
T3 sequence: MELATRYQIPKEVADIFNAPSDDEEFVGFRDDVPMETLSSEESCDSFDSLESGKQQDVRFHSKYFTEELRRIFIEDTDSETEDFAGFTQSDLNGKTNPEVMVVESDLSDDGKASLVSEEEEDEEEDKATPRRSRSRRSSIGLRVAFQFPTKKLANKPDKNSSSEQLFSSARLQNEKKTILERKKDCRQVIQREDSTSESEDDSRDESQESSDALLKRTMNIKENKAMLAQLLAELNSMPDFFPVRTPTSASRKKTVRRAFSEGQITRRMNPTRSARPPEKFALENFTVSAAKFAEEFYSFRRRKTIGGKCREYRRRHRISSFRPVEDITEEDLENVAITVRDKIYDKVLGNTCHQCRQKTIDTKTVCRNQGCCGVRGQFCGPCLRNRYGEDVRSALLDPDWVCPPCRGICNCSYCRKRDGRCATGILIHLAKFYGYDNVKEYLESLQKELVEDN

Substance	binding (recombinant His-Menin)	binding [1]	binding [2]	binding [3]
YB-1 cold shock domain (GST-YB-1 CSD) (from UniProt P67809 61-125) (domain or fragment)	no binding	no binding	no binding	–
recombinant GST-YB-1 (from UniProt P67809 1-324)	–	–	–	no binding
